Drawing on US20240425876A1 (CHIGENOVO, published 2024), this text covers binding for two molecules.

Substrate in experiment [1]: T1, C* (aa 1-20, 1369-2273) C-terminal truncated version of ABCA4 with a Flag tag at its C-terminus (human) (UniProt P78363)
T1 sequence: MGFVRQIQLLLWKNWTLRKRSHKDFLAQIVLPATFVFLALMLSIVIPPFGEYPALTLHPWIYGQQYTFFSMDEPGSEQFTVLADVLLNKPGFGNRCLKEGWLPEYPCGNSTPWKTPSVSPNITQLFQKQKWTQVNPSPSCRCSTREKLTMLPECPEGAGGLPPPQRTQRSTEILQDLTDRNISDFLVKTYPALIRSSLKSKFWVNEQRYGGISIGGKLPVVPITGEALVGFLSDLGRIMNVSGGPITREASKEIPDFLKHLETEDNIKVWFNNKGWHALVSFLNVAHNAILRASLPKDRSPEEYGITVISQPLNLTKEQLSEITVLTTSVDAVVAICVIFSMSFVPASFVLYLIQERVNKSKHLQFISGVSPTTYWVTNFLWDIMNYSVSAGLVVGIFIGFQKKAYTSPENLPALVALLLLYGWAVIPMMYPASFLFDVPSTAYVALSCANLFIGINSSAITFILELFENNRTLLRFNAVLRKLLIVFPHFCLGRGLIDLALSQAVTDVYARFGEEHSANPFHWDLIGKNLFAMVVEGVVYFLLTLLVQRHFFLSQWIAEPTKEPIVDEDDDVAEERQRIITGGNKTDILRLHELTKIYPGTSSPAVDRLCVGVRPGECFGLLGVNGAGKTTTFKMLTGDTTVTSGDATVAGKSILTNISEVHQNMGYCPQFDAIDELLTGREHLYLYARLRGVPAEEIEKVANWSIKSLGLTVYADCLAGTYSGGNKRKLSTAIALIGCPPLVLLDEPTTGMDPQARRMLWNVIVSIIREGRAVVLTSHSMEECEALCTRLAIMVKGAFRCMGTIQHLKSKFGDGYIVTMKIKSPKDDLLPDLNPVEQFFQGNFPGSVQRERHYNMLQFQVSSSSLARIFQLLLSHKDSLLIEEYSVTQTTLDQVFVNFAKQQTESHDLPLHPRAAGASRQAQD
Description: co-immunoprecipitation: flag antibody beads, HA western blot, HEK293 lysate. In general terms: A western blot detects proteins with antibodies after separation by electrophoresis.

The target in experiment [2] is T2, C-terminal truncated version (aa 1348-2273) of ABCA4 with a Flag tag at its C-terminus (human) (UniProt P78363).
T2 sequence: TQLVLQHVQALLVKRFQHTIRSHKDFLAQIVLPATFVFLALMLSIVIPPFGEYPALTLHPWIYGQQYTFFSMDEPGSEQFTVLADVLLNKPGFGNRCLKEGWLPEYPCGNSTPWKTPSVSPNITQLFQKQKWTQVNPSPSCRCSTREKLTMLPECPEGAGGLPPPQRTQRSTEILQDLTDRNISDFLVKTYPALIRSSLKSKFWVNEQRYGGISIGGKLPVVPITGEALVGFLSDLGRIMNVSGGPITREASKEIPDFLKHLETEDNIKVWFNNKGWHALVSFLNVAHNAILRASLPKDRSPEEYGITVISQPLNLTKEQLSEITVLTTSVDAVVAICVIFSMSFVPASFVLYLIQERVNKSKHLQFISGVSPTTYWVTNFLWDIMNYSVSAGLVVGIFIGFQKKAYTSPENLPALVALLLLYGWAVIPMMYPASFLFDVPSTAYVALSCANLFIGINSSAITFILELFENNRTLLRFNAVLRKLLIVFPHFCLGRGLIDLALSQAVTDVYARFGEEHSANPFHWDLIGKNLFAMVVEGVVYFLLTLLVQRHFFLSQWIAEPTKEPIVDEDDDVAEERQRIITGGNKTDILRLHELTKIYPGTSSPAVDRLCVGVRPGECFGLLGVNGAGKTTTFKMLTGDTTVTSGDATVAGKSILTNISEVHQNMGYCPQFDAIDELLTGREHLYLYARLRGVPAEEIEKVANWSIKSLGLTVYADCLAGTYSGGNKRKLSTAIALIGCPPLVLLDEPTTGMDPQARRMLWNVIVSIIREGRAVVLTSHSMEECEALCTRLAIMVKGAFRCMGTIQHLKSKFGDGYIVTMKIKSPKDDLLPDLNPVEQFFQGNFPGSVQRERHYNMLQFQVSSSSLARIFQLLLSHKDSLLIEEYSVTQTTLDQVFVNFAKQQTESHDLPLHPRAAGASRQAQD
The experiment is described as above.

No constants are given. Whether binding was seen depends on the method and setting. In cells and extracts the contact can be indirect. Some binding calls cover weakened binding; strength is not graded here. Sequences can lack the tags named with a protein.

B1: N-terminal truncated version (aa 1-1347) of ABCA4 with an HA tag at its C-terminus (other)
chain: MGFVRQIQLLLWKNWTLRKRQKIRFVVELVWPLSLFLVLIWLRNANPLYSHHECHFPNKAMPSAGMLPWLQGIFCNVNNPCFQSPTPGESPGIVSNYNNSILARVYRDFQELLMNAPESQHLGRIWTELHILSQFMDTLRTHPERIAGRGIRIRDILKDEETLTLFLIKNIGLSDSVVYLLINSQVRPEQFAHGVPDLALKDIACSEALLERFIIFSQRRGAKTVRYALCSLSQGTLQWIEDTLYANVDFFKLFRVLPTLLDSRSQGINLRSWGGILSDMSPRIQEFIHRPSMQDLLWVTRPLMQNGGPETFTKLMGILSDLLCGYPEGGGSRVLSFNWYEDNNYKAFLGIDSTRKDPIYSYDRRTTSFCNALIQSLESNPLTKIAWRAAKPLLMGKILYTPDSPAARRILKNANSTFEELEHVRKLVKAWEEVGPQIWYFFDNSTQMNMIRDTLGNPTVKDFLNRQLGEEGITAEAILNFLYKGPRESQADDMANFDWRDIFNITDRTLRLVNQYLECLVLDKFESYNDETQLTQRALSLLEENMFWAGVVFPDMYPWTSSLPPHVKYKIRMDIDVVEKTNKIKDRYWDSGPRADPVEDFRYIWGGFAYLQDMVEQGITRSQVQAEAPVGIYLQQMPYPCFVDDSFMIILNRCFPIFMVLAWIYSVSMTVKSIVLEKELRLKETLKNQGVSNAVIWCTWFLDSFSIMSMSIFLLTIFIMHGRILHYSDPFILFLFLLAFSTATIMLCFLLSTFFSKASLAAACSGVIYFTLYLPHILCFAWQDRMTAELKKAVSLLSPVAFGFGTEYLVRFEEQGLGLQWSNIGNSPTEGDEFSFLLSMQMMLLDAAVYGLLAWYLDQVFPGDYGTPLPWYFLLQESYWLGGEGCSTREERALEKTEPLTEETEDPEHPEGIHDSFFEREHPGWVPGVCVKNLVKIFEPCGRPAVDRLNITFYENQITAFLGHNGAGKTTTLSILTGLLPPTSGTVLVGGRDIETSLDAVRQSLGMCPQHNILFHHLTVAEHMLFYAQLKGKSQEEAQLEMEAMLEDTGLHHKRNEEAQDLSGGMQRKLSVAIAFVGDAKVVILDEPTSGVDPYSRRSIWDLLLKYRSGRTIIMSTHHMDEADLLGDRIAIIAQGRLYCSGTPLFLKNCFGTGLYLTLVRKMKNIQSQRKGSEGTCSCSSKGFSTTCPAHVDDLTPEQVLDGDVNELMDVVLHHVPEAKLVECIGQELIFLLPNKNFKHRAYASLFRELEETLADLGLSSFGISDTPLEEIFLKVTEDSDSGPLFAGGAQQKRENVNPRHPCLGPREKAGQTPQDSNVCSPGAPAAHPEGQPPPEPECPGPQLNTG
notes: Expressed in HEK293 cells from a codon-optimized CDS; tested in cell lysate; also called N1347; not shown: hemagglutinin (HA) tag linked to the C-terminus
As to B1, the binding entry in experiment [1] and in experiment [2] was “binds” throughout.

B2: N1220 (aa 1-1220) N-terminal truncated version of ABCA4 with an HA tag at its C-terminus (protein, not shown: small tags and cut ends)
chain: MGFVRQIQLLLWKNWTLRKRQKIRFVVELVWPLSLFLVLIWLRNANPLYSHHECHFPNKAMPSAGMLPWLQGIFCNVNNPCFQSPTPGESPGIVSNYNNSILARVYRDFQELLMNAPESQHLGRIWTELHILSQFMDTLRTHPERIAGRGIRIRDILKDEETLTLFLIKNIGLSDSVVYLLINSQVRPEQFAHGVPDLALKDIACSEALLERFIIFSQRRGAKTVRYALCSLSQGTLQWIEDTLYANVDFFKLFRVLPTLLDSRSQGINLRSWGGILSDMSPRIQEFIHRPSMQDLLWVTRPLMQNGGPETFTKLMGILSDLLCGYPEGGGSRVLSFNWYEDNNYKAFLGIDSTRKDPIYSYDRRTTSFCNALIQSLESNPLTKIAWRAAKPLLMGKILYTPDSPAARRILKNANSTFEELEHVRKLVKAWEEVGPQIWYFFDNSTQMNMIRDTLGNPTVKDFLNRQLGEEGITAEAILNFLYKGPRESQADDMANFDWRDIFNITDRTLRLVNQYLECLVLDKFESYNDETQLTQRALSLLEENMFWAGVVFPDMYPWTSSLPPHVKYKIRMDIDVVEKTNKIKDRYWDSGPRADPVEDFRYIWGGFAYLQDMVEQGITRSQVQAEAPVGIYLQQMPYPCFVDDSFMIILNRCFPIFMVLAWIYSVSMTVKSIVLEKELRLKETLKNQGVSNAVIWCTWFLDSFSIMSMSIFLLTIFIMHGRILHYSDPFILFLFLLAFSTATIMLCFLLSTFFSKASLAAACSGVIYFTLYLPHILCFAWQDRMTAELKKAVSLLSPVAFGFGTEYLVRFEEQGLGLQWSNIGNSPTEGDEFSFLLSMQMMLLDAAVYGLLAWYLDQVFPGDYGTPLPWYFLLQESYWLGGEGCSTREERALEKTEPLTEETEDPEHPEGIHDSFFEREHPGWVPGVCVKNLVKIFEPCGRPAVDRLNITFYENQITAFLGHNGAGKTTTLSILTGLLPPTSGTVLVGGRDIETSLDAVRQSLGMCPQHNILFHHLTVAEHMLFYAQLKGKSQEEAQLEMEAMLEDTGLHHKRNEEAQDLSGGMQRKLSVAIAFVGDAKVVILDEPTSGVDPYSRRSIWDLLLKYRSGRTIIMSTHHMDEADLLGDRIAIIAQGRLYCSGTPLFLKNCFGTGLYLTLVRKMKNIQSQRKGSEGTCSCSSKGFSTTCPAHVDDLTPEQVLDGDVNELMDVVLHHVPEAK
Regarding B2, the binding result in experiment [1] and in experiment [2] was “binds” throughout.
